These are literature values, as cited in article PMC6974622, “DeepMalaria: Artificial Intelligence Driven Discovery of Potent Antiplasmodials” (Frontiers in Pharmacology, 2020).

In this data set the test system is 3D7. Further details: unit not given here. As to conditions: cited from earlier work.

Take `COc1ccc(CC(C)NCC(O)c2ccc(O)c(NC=O)c2)cc1` (stereo not shown) [Formoterol]: the 3D7 is recorded as 61.6.
